{"source": "PubChem BioAssay AID540256", "about": "(National Center for Advancing Translational Sciences (NCATS), 2011)", "note": "Out of some 300,000 compounds screened, about 3,700 (1.2%) were called active. Inconclusive results, whose numbers are uncertain, are shown with a selection of clear calls. Calls come from the whole dose curve; tested in HEK293 cells. A potency beside an inconclusive call is a rough fit, not a confirmed value. % is set by controls: 0 for no effect and ±100 for the full control effect; potency is the fitted concentration of half-maximal effect.", "data": [{"test": "qHTS for Inhibitors of binding or entry into cells for Lassa Virus; note: nearly all actives have a fitted effect of over 50% in size", "conditions": "Lassa virus pseudotype entry inhibition, cell reporter; activity change, negative = inhibition: at 37.9 µM (top of the series) unless noted", "values": [{"smiles": "CCC(C)c1ccc(NC(=S)N2CCN(S(C)(=O)=O)CC2)cc1", "note": "(configuration not stated)", "Potency": "inconclusive: 11.2 µM [inhibitor, partial curve, poor fit]"}, {"smiles": "CCCCOC(=O)Nc1nnc(C(C)C)s1", "Potency": "inconclusive: 2.24 µM [activator, partial curve, poor fit]"}, {"smiles": "CCN(C(=O)c1cc(S(=O)(=O)N2CCOCC2)cn1C)c1ccc(OC)cc1", "activity change, negative = inhibition": "inactive: 22.3% [at 46.1 µM]"}, {"smiles": "Cc1ccc(C(C)C)c(OCC(=O)Nn2c(=O)[nH]c3ccccc3c2=O)c1", "Potency": "inconclusive: 15.8 µM [inhibitor, partial curve, poor fit]"}, {"smiles": "CC(C)(C)NC(=O)CN(Cc1ccc2c(c1)OCO2)C(=O)CNS(=O)(=O)c1ccccc1", "Potency": "inconclusive: 35.5 µM [activator, single point]"}, {"smiles": "CC(C)CN(C(=O)COC(=O)COc1ccc2ccccc2c1)c1c(N)n(Cc2ccccc2)c(=O)[nH]c1=O", "Potency": "inconclusive: 22.4 µM [activator, single point]"}, {"smiles": "Cn1cc(C(=O)O)c(=O)c2cc(S(=O)(=O)N3CCCCC3)ccc21", "activity change, negative = inhibition": "inactive: -16.5% [at 46.1 µM]"}, {"smiles": "O=C(/C=C/c1ccccc1[N+](=O)[O-])OCC(=O)c1ccccc1", "Potency": "inconclusive: 35.5 µM [activator, single point]"}, {"smiles": "Cn1ncc(Cl)c(Oc2ccc(Cl)cc2)c1=O", "Potency": "inconclusive: 35.5 µM [inhibitor, single point]"}, {"smiles": "COC(=O)c1ccc(N2CCN(S(=O)(=O)c3ccc(C)cc3)CC2)c([N+](=O)[O-])c1", "Potency": "inconclusive: 13 µM [inhibitor, partial curve]"}, {"smiles": "COc1cccc(-c2cc(C(=O)NCc3ccccc3)[nH]n2)c1", "Potency": "active: 7.94 µM"}, {"smiles": "Cc1ccc(CSc2nc3c(c(N(C)C)n2)CCCC3)cc1", "activity change, negative = inhibition": "inactive: -8.34%"}, {"smiles": "Cc1cccc2c1-c1sc(C(=O)NCCCN3CCN(c4cccc(Cl)c4)CC3)cc1CO2", "Potency": "inconclusive: 35.5 µM [inhibitor, single point]"}, {"smiles": "Nc1c(Cl)cc2c(c1Oc1ccccc1)C(=O)c1ccccc1C2=O", "activity change, negative = inhibition": "inactive: -11.8%"}, {"smiles": "COc1ccccc1NC(=O)Nc1ccc2c(c1)nnn2C", "activity change, negative = inhibition": "inactive: -22.5%"}, {"smiles": "Nc1ncnc2occ(-c3ccc(NC(=O)Nc4cccc(C(F)(F)F)c4)cc3)c12", "Potency": "inconclusive: 9.96 µM [inhibitor, partial curve, poor fit]"}, {"smiles": "Cc1ccc(NC(=O)c2ccc(=O)n(CC(=O)Nc3cc(C)cc(C)c3)n2)cc1", "Potency": "inconclusive: 35.5 µM [activator, single point]"}, {"smiles": "CCOc1ccc(Cl)cc1S(=O)(=O)n1cnc2ccccc21", "Potency": "inconclusive: 15.8 µM [inhibitor, single point]"}, {"smiles": "CCN1CCN(S(=O)(=O)c2ccc(Cl)c(C(=O)NCCOc3ccc(C)cc3)c2)CC1", "Potency": "inconclusive: 35.5 µM [inhibitor, single point]"}, {"smiles": "CCN(CC)S(=O)(=O)c1ccc(N2CCCC2)c(NS(=O)(=O)c2ccccc2)c1", "Potency": "inconclusive: 2.06 µM [inhibitor, full curve, poor fit]"}, {"smiles": "CSc1ncccc1C(=O)Nc1ccc2c(c1)OCCO2", "Potency": "inconclusive: 5.01 µM [activator, partial curve, poor fit]"}, {"smiles": "O=C(Nc1ccncc1)c1cccc(S(=O)(=O)N2CCN(c3ccc(F)cc3)CC2)c1", "Potency": "inconclusive: 11.2 µM [inhibitor, partial curve, poor fit]"}, {"smiles": "CC(C)c1ccc(/C=N/N2CCN(c3ccccn3)CC2)cc1", "activity change, negative = inhibition": "inactive: 5.01% [at 46.1 µM]"}, {"smiles": "CCCCNC(=S)NNC(=O)CCn1nc(C)c(Br)c1C", "Potency": "inconclusive: 1.46 µM [inhibitor, partial curve, poor fit]"}, {"smiles": "NS(=O)(=O)c1ccc(N2N=C(c3ccccc3)CC2c2ccc(F)cc2)cc1", "note": "(configuration not stated)", "Potency": "inconclusive: 17.8 µM [inhibitor, partial curve, poor fit]"}, {"smiles": "O=C(NC(=S)Nc1nc2ccccc2s1)c1ccco1", "Potency": "inconclusive: 6.31 µM [activator, partial curve, poor fit]"}, {"smiles": "CN1CCN(CCCN(Cc2cccs2)C(=S)Nc2ccc(Cl)cc2)CC1", "Potency": "inconclusive: 0.316 µM [inhibitor, partial curve, poor fit]"}, {"smiles": "Cc1ccc2c(c1)c1c(c(=O)n(-c3ccccc3C)c(=O)n1Cc1ccccc1F)n2C", "Potency": "inconclusive: 6.31 µM [inhibitor, single point]"}, {"smiles": "Cc1c(C(=O)NCCCN2CCCC2=O)oc2c(Cl)cccc12", "Potency": "inconclusive: 15.8 µM [inhibitor, single point]"}, {"smiles": "Cc1ccc(OCC(=O)NN=C2c3ccccc3-c3ccccc32)cc1", "activity change, negative = inhibition": "inactive: -11.1%"}, {"smiles": "Cc1ccc(CN2CCC(n3nccc3NC(=O)c3ccccc3C)CC2)o1", "Potency": "inconclusive: 2.82 µM [inhibitor, partial curve, poor fit]"}, {"smiles": "CC(=O)c1ccc(NS(=O)(=O)Cc2ccccc2)cc1", "activity change, negative = inhibition": "inactive: 13.8%"}, {"smiles": "Cc1ccc(C)c(S(=O)(=O)N2CCCC2CNC(=O)c2ccc([N+](=O)[O-])cc2)c1", "note": "(configuration not stated)", "Potency": "inconclusive: 35.5 µM [inhibitor, partial curve, poor fit]"}, {"smiles": "COc1ccc(Nc2ncc(C(=O)Nc3cc(C)ccc3OC)c3ccccc23)cc1", "Potency": "inconclusive: 3.16 µM [inhibitor, full curve]"}, {"smiles": "CC(C)CCNC(=O)C1c2ccccc2Oc2ccccc21", "Potency": "inconclusive: 7.08 µM [activator, partial curve, poor fit]"}, {"smiles": "NC(=O)c1c(NC(=O)c2cccc(N3C(=O)CCC3=O)c2)sc2c1CCCCC2", "Potency": "inconclusive: 17.8 µM [inhibitor, partial curve, poor fit]"}, {"smiles": "COc1ccc(NC(=O)C2CC(c3cccc(Br)c3)=NO2)cc1OC", "note": "(configuration not stated)", "activity change, negative = inhibition": "inactive: 0.516%"}, {"smiles": "Cc1cc(C=O)c(C)n1-c1ccc(Oc2ccc([N+](=O)[O-])cn2)cc1", "Potency": "inconclusive: 8.2 µM [inhibitor, partial curve]"}, {"smiles": "C/C(=C1\\SC(N2CCOCC2)=NC1=O)c1ccccc1", "Potency": "inconclusive: 0.0058 µM [inhibitor, full curve, poor fit]"}, {"smiles": "CCn1cc(C(=O)NCc2ccc(Cl)cc2)c(=O)c2cc(S(=O)(=O)N(C)C)ccc21", "Potency": "inconclusive: 20 µM [inhibitor, partial curve, poor fit]"}, {"smiles": "O=C(N/N=C/c1cn(-c2ccccc2)nc1-c1cccs1)c1ccc(Cl)cc1", "Potency": "inconclusive: 25.9 µM [inhibitor, partial curve, poor fit]"}, {"smiles": "COc1cccc(C(=O)NC(c2ccc(Cl)cc2)c2cc(Cl)c3cccnc3c2O)c1", "note": "(configuration not stated)", "Potency": "inconclusive: 5.01 µM [inhibitor, full curve, poor fit]"}, {"smiles": "O=C(O)c1ccc(-n2ccnc2)c([N+](=O)[O-])c1", "activity change, negative = inhibition": "inactive: 18.1%"}, {"smiles": "Cc1ccc(N2C(=O)NC(=O)C(CCc3ccccn3)(Cc3ccc(F)cc3)C2=O)cc1", "note": "(configuration not stated)", "activity change, negative = inhibition": "inactive: -2.39%"}, {"smiles": "CCn1c(CNC(=O)COc2ccc(C(C)C)cc2)nnc1SCC(=O)Nc1ccc(F)cc1", "Potency": "inconclusive: 14.6 µM [inhibitor, partial curve, poor fit]"}, {"smiles": "Clc1ccc(-c2c[n+]3c(n2-c2ccccc2)SCC3)cc1", "activity change, negative = inhibition": "inactive: -18.1%"}, {"smiles": "CCCNS(=O)(=O)c1ccc(CCC(=O)N2CCN(c3ccc(OC)cc3)CC2)cc1", "activity change, negative = inhibition": "inactive: -8.07%"}, {"smiles": "COc1ccc(C(=O)Nc2nccs2)cc1OC", "activity change, negative = inhibition": "inactive: 16.9%"}, {"smiles": "CC1=Nc2ccccc2N=C(NC(=O)/C=C/C(=O)O)C1c1ccccc1", "note": "(configuration not stated)", "Potency": "inconclusive: 35.5 µM [inhibitor, single point]"}, {"smiles": "COc1ccc(N2CCN(C(=O)CNC(=O)Cc3ccc(Cl)cc3)CC2)cc1", "Potency": "inconclusive: 3.16 µM [inhibitor, partial curve, poor fit]"}, {"smiles": "O=Cc1ccc(-c2nc3ccccc3s2)o1", "activity change, negative = inhibition": "inactive: -18.7% [at 46.1 µM]"}, {"smiles": "CC1(C)CC(=O)C2=C(C1)OC(N)=C(C#N)C2C1C=CCCC1", "note": "(configuration not stated)", "Potency": "inconclusive: 15.8 µM [inhibitor, single point]"}, {"smiles": "Cc1ccc2[nH]c3c(c2c1)CCCC3NCCO", "note": "(configuration not stated)", "Potency": "inconclusive: 35.5 µM [inhibitor, single point]"}, {"smiles": "Cc1ccc(CNC(=O)C2CCN(c3nc4ccc(C)cc4[nH]3)CC2)cc1", "Potency": "inconclusive: 35.5 µM [inhibitor, single point]"}, {"smiles": "CCCC(=O)Nc1cccc(-c2nc3cc(C)c(C)cc3o2)c1C", "Potency": "inconclusive: 15.8 µM [activator, partial curve, poor fit]"}, {"smiles": "CC(=O)Nc1ccc(NC(=O)CSc2nnc3c4cc(Br)ccc4n(C)c3n2)cc1", "Potency": "inconclusive: 11.2 µM [inhibitor, partial curve, poor fit]"}, {"smiles": "c1ccc2cc3[nH]c(CN4CCOCC4)nc3cc2c1", "Potency": "inconclusive: 10 µM [activator, partial curve]"}, {"smiles": "CN1C(=O)/C(=C/c2cc(N=Nc3ccccc3)ccc2O)SC1=S", "Potency": "inconclusive: 1.3 µM [inhibitor, partial curve, poor fit]"}, {"smiles": "Oc1ccccc1N1CCN(C(=S)NCCc2ccccc2)CC1", "activity change, negative = inhibition": "inactive: -10.5%"}, {"smiles": "O=S(=O)(NCc1ccccc1Br)c1cccs1", "activity change, negative = inhibition": "inactive: 11.9%"}, {"smiles": "CC(/C=N/NC(=O)c1ccc2nc(C)[nH]c2c1)=C\\c1ccccc1", "activity change, negative = inhibition": "inactive: 4.77%"}, {"smiles": "COc1cc(C)ccc1Oc1ccc([N+](=O)[O-])cc1", "Potency": "inconclusive: 1 µM [activator, single point]"}, {"smiles": "CN(C)CCC(Oc1ccccc1OCc1ccccc1)c1ccccc1", "note": "(configuration not stated)", "Potency": "inconclusive: 35.5 µM [inhibitor, single point]"}, {"smiles": "O=C(COC(=O)c1ccc(Cl)nc1)Nc1ccc2c(c1)OCO2", "activity change, negative = inhibition": "inactive: 9.6% [at 46.1 µM]"}, {"smiles": "COc1cccc2sc(Nc3nnc(-c4ccccc4Cl)o3)nc12", "Potency": "inconclusive: 7.31 µM [inhibitor, partial curve, poor fit]"}, {"smiles": "O=C(CSCc1nc2ccccc2[nH]1)Nc1ccccc1", "activity change, negative = inhibition": "inactive: 10.9%"}, {"smiles": "CCOc1ccc(S(=O)(=O)Nc2cnc3ccccc3c2)cc1", "Potency": "inconclusive: 7.94 µM [inhibitor, partial curve, poor fit]"}]}]}
